Measurements taken from patent publication US20050148763A1, “Peg-binding pth or peg-binding pth derivative” (Chugai Seiyaku Kabushiki Kaisha, priority 2002, published 2005).
Part of at least one peptide drawing is inferred or uncertain, most often the ends. Some of these results come from one statement about several compounds together.

What was measured:
rat PTH1 receptors = molecular target: T1, rat PTH1 receptors (Rattus norvegicus, UniProt P25961); assay: in vitro ability to produce cAMP, EW29 cells; assay type: cell-based; conditions: for decrease in the ability to produce cAMP: versus hPTH(1-34)
T1 construct: expressed in transfected cells; host or cells: EW29 cells
T1 sequence (P25961 27-591): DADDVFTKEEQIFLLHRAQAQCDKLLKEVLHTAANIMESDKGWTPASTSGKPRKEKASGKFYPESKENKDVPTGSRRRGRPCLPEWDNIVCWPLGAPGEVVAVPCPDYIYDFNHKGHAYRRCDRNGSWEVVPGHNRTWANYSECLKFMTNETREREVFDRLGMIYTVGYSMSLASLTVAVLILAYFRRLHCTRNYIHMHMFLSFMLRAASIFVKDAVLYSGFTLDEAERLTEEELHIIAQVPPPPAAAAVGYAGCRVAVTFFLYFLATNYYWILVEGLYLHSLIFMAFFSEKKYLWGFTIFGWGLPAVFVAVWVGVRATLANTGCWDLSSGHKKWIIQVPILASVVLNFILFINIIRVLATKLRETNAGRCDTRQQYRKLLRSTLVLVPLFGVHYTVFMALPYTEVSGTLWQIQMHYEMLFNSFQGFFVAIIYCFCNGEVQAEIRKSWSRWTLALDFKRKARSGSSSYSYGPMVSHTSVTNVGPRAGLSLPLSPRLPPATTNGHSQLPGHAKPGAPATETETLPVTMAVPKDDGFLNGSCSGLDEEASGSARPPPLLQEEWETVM
Description: (§1) Each PEG-PTH sample was assayed for its ability to produce cAMP (indicative of the increasing effect of PTH on bone mass) as follows. […] These cells were seeded in 96-well plates at 1×10^5 cells/well and incubated overnight. […] After removing the reaction solution, the plates were placed on powdered dry ice to freeze the cells and then removed from the dry ice. The cells were thawed with 50 μL of 50 mM HCl and frozen again on dry ice. The level of intracellular cAMP was determined with a commercially available EIA kit (Biotrak cAMP EIA system, Amersham).

[1] = Increasing effect on bone mass in OVX rats; assay type: in vivo; conditions: for effect on lumbar bone mass (in words): doses of 2.5 nmol/kg and 10 nmol/kg sc, 4 weeks; for lumbar and femoral bone density (in words): sc 5 times a week for 4 weeks
Description: 2 k PEG-[Cys^35]-PTH(1-35) was studied for the increasing effect on bone mass in OVX rats as follows. […] These samples were divided into aliquots and stored at −80° C. until use.
Female SD-IGS rats at 7 weeks of age (Charles River Japan, Inc.) were used, 60 of which were ovariectomized (OVX) to remove both ovaries and 7 of which were sham-operated. After 2 weeks, the ovariectomized rats were measured for their body weight and divided into groups of 6 rats each such that the mean body weights of all groups were identical.
Each drug was given subcutaneously at a dose of 1 ml/kg on a 5 times-a-week basis for 4 weeks. On the last day of administration, the rats were housed in metabolic cages and 24-hour urine was collected from each rat. On the following day, after the rats were euthanized by exsanguination under anesthesia, an autopsy was performed to collect blood, lumbar vertebrae and femurs. The urine and blood were taken into tubes and centrifuged to collect the respective supernatants, which were stored at −20° C. until assayed for parameters. The lumbar vertebrae and right femurs were stored in 70% ethanol. The average bone density of the second to fifth lumbar vertebrae and the bone density of the right femur were measured using a dual X-ray bone mineral densitometer (DCS-600EX, ALOKA).

human PTH1 receptors [2] = molecular target: T2, human PTH1 receptors (Homo sapiens, UniProt Q03431); assay: in vitro ability to produce cAMP, HKRK-B7 cells; assay type: cell-based; conditions: Table 2(1), n=2-3
T2 construct: expressed in transfected cells; host or cells: HKRK-B7 and HKRK-B64 cells (derived from pig kidney LLC-PK1 cells)
T2 sequence (Q03431 27-593): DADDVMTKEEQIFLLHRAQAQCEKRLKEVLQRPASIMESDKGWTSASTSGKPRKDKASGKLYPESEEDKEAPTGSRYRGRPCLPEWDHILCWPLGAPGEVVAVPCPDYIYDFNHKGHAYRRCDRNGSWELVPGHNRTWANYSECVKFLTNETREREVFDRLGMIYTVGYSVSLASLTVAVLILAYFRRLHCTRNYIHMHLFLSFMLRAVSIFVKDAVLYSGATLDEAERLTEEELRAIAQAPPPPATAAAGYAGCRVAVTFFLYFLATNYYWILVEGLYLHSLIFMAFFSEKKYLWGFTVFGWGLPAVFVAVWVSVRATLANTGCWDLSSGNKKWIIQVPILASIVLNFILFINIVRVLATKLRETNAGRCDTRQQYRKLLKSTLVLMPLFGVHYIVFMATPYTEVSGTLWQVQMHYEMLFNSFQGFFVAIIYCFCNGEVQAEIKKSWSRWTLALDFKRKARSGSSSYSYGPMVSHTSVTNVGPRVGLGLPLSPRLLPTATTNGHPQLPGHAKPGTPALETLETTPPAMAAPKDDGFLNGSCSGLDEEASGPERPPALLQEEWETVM
Description: as §1

human PTH1 receptors [3] = molecular target: T2, human PTH1 receptors; assay: in vitro ability to produce cAMP, HKRK-B64 cells; assay type: cell-based; conditions: Table 2(2), n=2-3
Description: Each PEG-PTH sample was assayed for its ability to produce cAMP (indicative of the increasing effect of PTH on bone mass) as follows. HKRK-B7 and HKRK-B64 cells, genetically modified from pig kidney-derived LLC-PK1 cells to overexpress human PTH1 receptors at levels of about 1×10^6 and 9×10^4 receptors per cell, respectively, as well as EW29 cells expressing about 1.9×10^5 rat PTH1 receptors per cell (Takasu et al., J. Bone. Miner. Res. 14: 11-20, 1999) were grown in DMEM supplemented with 10% FBS, 1% penicillin and 1% streptomycin. These cells were seeded in 96-well plates at 1×10^5 cells/well and incubated overnight. On the following day, the cells were washed once with 200 μL binding buffer (50 mM Tris-HCl/100 mM NaCl/5 mM KCl/2 mM CaCl2/5% inactivated horse serum/0.5% inactivated bovine serum, pH 7.7), followed by addition of 100 μL cAMP assay buffer (DMEM/2 mM 3-isobutyl-1-methylxanthine/1 mg/mL bovine serum albumin/35 mM HEPES-NaOH, pH 7.4) on ice. […] After removing the reaction solution, the plates were placed on powdered dry ice to freeze the cells and then removed from the dry ice. The cells were thawed with 50 μL of 50 mM HCl and frozen again on dry ice. The level of intracellular cAMP was determined with a commercially available EIA kit (Biotrak cAMP EIA system, Amersham).

Molecule | decrease in the ability to produce cAMP (rat PTH1 receptors) | effect on lumbar bone mass (in words) [1] | lumbar and femoral bone density (in words) [1] | other results
5 k PEG-[Cys^35]-hPTH(1-35): [Cys^35]-hPTH(1-35) conjugated with 5 kDa PEG (SVSEIQLMHNLGKHLNSMERVEWLRKKLQDVHNFC; Parathyroid hormone 5 kDa PEG at Cys35; UniProt P01270 32-66, looked up, variant V35C) | 10- to 20 fold | – | – | –
CC[C@H](C)[C@H](NC(=O)[C@H](CCC(=O)O)NC(=O)[C@H](CO)NC(=O)[C@@H](NC(=O)[C@@H](N)CO)C(C)C)C(=O)N[C@@H](CCC(N)=O)C(=O)N[C@@H](CC(C)C)C(=O)N[C@@H](CCSC)C(=O)N[C@@H](Cc1c[nH]cn1)C(=O)N[C@@H](CC(N)=O)C(=O)N[C@@H](CC(C)C)C(=O)NCC(=O)N[C@@H](CCCCN)C(=O)N[C@@H](Cc1c[nH]cn1)C(=O)N[C@@H](CC(C)C)C(=O)N[C@@H](CC(N)=O)C(=O)N[C@@H](CO)C(=O)N[C@@H](CCSC)C(=O)N[C@@H](CCC(=O)O)C(=O)N[C@@H](CCCNC(=N)N)C(=O)N[C@H](C(=O)N[C@@H](CCC(=O)O)C(=O)N[C@@H](Cc1c[nH]c2ccccc12)C(=O)N[C@@H](CC(C)C)C(=O)N[C@@H](CCCNC(=N)N)C(=O)N[C@@H](CCCCN)C(=O)N[C@@H](CCCCN)C(=O)N[C@@H](CC(C)C)C(=O)N[C@@H](CCC(N)=O)C(=O)N[C@@H](CC(=O)O)C(=O)N[C@H](C(=O)N[C@@H](Cc1c[nH]cn1)C(=O)N[C@@H](CC(N)=O)C(=O)N[C@@H](Cc1ccccc1)C(=O)O)C(C)C)C(C)C [hPTH(1-34), reference compound] | – | statistically significant increasing effect on lumbar bone mass | dose-dependent increases in lumbar and femoral bone density | –
CC[C@H](C)[C@H](NC(=O)[C@H](CCC(=O)O)NC(=O)[C@H](CO)NC(=O)[C@@H](NC(=O)[C@@H](N)CO)C(C)C)C(=O)N[C@@H](CCC(N)=O)C(=O)N[C@@H](CC(C)C)C(=O)N[C@@H](CCSC)C(=O)N[C@@H](Cc1c[nH]cn1)C(=O)N[C@@H](CC(N)=O)C(=O)N[C@@H](CC(C)C)C(=O)NCC(=O)N[C@@H](CCCCN)C(=O)N[C@@H](Cc1c[nH]cn1)C(=O)N[C@@H](CC(C)C)C(=O)N[C@@H](CC(N)=O)C(=O)N[C@@H](CO)C(=O)N[C@@H](CCSC)C(=O)N[C@@H](CCC(=O)O)C(=O)N[C@@H](CCCNC(=N)N)C(=O)N[C@H](C(=O)N[C@@H](CCC(=O)O)C(=O)N[C@@H](Cc1c[nH]c2ccccc12)C(=O)N[C@@H](CC(C)C)C(=O)N[C@@H](CCCNC(=N)N)C(=O)N[C@@H](CCCCN)C(=O)N[C@@H](CCCCN)C(=O)N[C@@H](CC(C)C)C(=O)N[C@@H](CCC(N)=O)C(=O)N[C@@H](CC(=O)O)C(=O)N[C@H](C(=O)N[C@@H](Cc1c[nH]cn1)C(=O)N[C@@H](CC(N)=O)C(=O)N[C@@H](Cc1ccccc1)C(=O)N[C@@H](CS)C(=O)O)C(C)C)C(C)C [[Cys^35]-hPTH(1-35)] | – | statistically significant increasing effect on lumbar bone mass | dose-dependent increases in lumbar and femoral bone density | Maximum cAMP response (human PTH1 receptors [2]): 130.7 ± 15.2 pmol/well; EC50 (human PTH1 receptors [2]; cAMP production): 0.7 ± 0.3 nM; Maximum cAMP response (human PTH1 receptors [3]): 70.6 ± 19.5 pmol/well; EC50 (human PTH1 receptors [3]; cAMP production): 0.3 ± 0.04 nM; Maximum cAMP response (rat PTH1 receptors; Table 2(3), n=2-3): 50.4 ± 9.7 pmol/well; EC50 (rat PTH1 receptors; cAMP production, Table 2(3), n=2-3): 0.3 ± 0.06 nM
2 k PEG-[Cys^35]-hPTH(1-35): [Cys^35]-PTH(1-35) conjugated with mPEG 2 k-MAL (2 kDa methoxy-PEG-maleimide) at the C-terminal cysteine (SVSEIQLMHNLGKHLNSMERVEWLRKKLQDVHNFC; Parathyroid hormone 2 kDa mPEG-maleimide at Cys35; UniProt P01270 32-66, looked up, variant V35C) | 10- to 20 fold | – | – | –
